Results as given in PubChem BioAssay (NCATS).
This is one part of the list. The main result of the screen is listed elsewhere. These columns were measured beside it and carry no call. Compounds called inactive in the main read-out are mostly missing here. Words in brackets tell the shape of the fitted curve; partial curves, single points and poor fits give uncertain potencies.

Experiment: S16 Schwann cell PMP22 intronic element beta-lactamase assay (AID 624044)
Conditions: S16 rat Schwann cells, PMP22 element beta-lactamase FRET, 24 h; measured here: 530 nm viability channel
Summary of the method: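 Rat S16 Schwann cells with beta-Lac driven by a PMP22 intronic element, compound-treated 24 h at 37 °C. LiveBLAzer FRET B/G read: 460 nm normalized to potassium clavulanate vs DMSO; 535 nm FRET as viability; concentration-effect curves classified.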

With CC1CC(O)CC(C)(C)C1 (stereo not drawn) as the compound, how does the AC50 read?
Its AC50 is 1410 nM [falling, full curve].

With CN=C(NC#N)Nc1ccc(C2=NNC(=O)CC2C)cc1 (stereo not drawn) as the compound, how does the AC50 read?
The AC50 was 1260 nM [falling, full curve, poor fit].

Which AC50 does the source give for CC(C)Cc1ccc([C@@H](C)C(=O)NS(C)(=O)=O)cc1 here?
The AC50 was 1120 nM [falling, full curve].

For Cc1cccn2c(=O)c(-c3nnn[nH]3)cnc12, which AC50 is on record?
Its AC50 is 1260 nM [falling, full curve, poor fit].

With CC[C@H](C)[C@H]1O[C@]2(CC[C@@H]1C)C[C@@H]1C[C@@H](C/C=C(\C)[C@H](O[C@@H]3C[C@H](OC)[C@H](O[C@@H]4C[C@H](OC)[C@@H](O)[C@H](C)O4)[C@H](C)O3)[C@@H](C)/C=C/C=C3\CO[C@@H]4[C@H](O)C(C)=C[C@@H](C(=O)O1)[C@]34O)O2 as the compound, how does the AC50 read?
Its AC50 is 31600 nM [falling, single point].

For C/C1=C2/[N-]C(C(CC(N)=O)[C@@]2(C)CCC(=O)NCC(C)OP(=O)([O-])O[C@H]2[C@@H](O)[C@@H](n3cnc4cc(C)c(C)cc43)O[C@@H]2CO)[C@]2(C)N=C(/C(C)=C3N=C(/C=C4N=C1C(CCC(N)=O)C\4(C)C)[C@@H](CCC(N)=O)[C@]\3(C)CC(N)=O)[C@@H](CCC(N)=O)[C@]2(C)CC(N)=O.CC(=O)O.[Co] (stereo partly drawn), which AC50 is on record?
Its AC50 is 2510 nM [falling, full curve].

For COc1cc(NCCCC(C)N)c2ncccc2c1 (stereo not drawn), which AC50 is on record?
Its AC50 is 2240 nM [falling, full curve].

Which AC50 does the source give for Cc1cc(CC(C)CC(C)(C)C)n(O)c(=O)c1 (stereo not drawn) here?
Its AC50 is 3160 nM [rising, full curve, poor fit].
